Measured values as given in the supplement of paper PMC5407854, “Inhibitor of ppGalNAc-T3-mediated O-glycosylation blocks cancer cell invasiveness and lowers FGF23 levels” (eLife, 2017).
The list shows a part of the results. Most values lie at the level of the controls, where differences are scatter.

system: ppGalNAc-T2 sensor; assay: T2 sensor activation Q score (MG/GFP ratio z-score vs DMSO controls) (SD units); higher = more sensor activation (inhibition of ppGalNAc-T2 glycosylation); settings: HEK293 sensor cells; 10 µM; 6 h
Experimental: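 Cells were treated with compound at 10 uM for 6 h, then MG/GFP ratio was read by flow cytometry (10,000 cells per well, duplicate wells). Q = (R - R_neg)/SD_neg relative to DMSO vehicle controls; the signal rises when the glycosyltransferase is inhibited.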

Row | Compound | T2 sensor activation Q score
1 | O=c1c2ccccc2nc(/C=C\c2ccc(Cl)cc2)n1-c1ccccc1 | -0.475
2 | O=[N+]([O-])c1ccc(CN2CCN(c3cccc(Cl)c3)CC2)cc1 | 0.185
3 | COc1ccc(CN2CCN(c3ccccc3)CC2)cc1O | 0
4 | CN1CCN(Cc2c(F)cccc2F)CC1 | -0.485
5 | Cc1cccc(N2CCN(Cc3cccc(F)c3)CC2)c1C | -0.235
6 | Cc1ccccc1N1CCN(Cc2ccccc2)CC1 | -0.325
7 | Cc1ccc(C)c(N2CCN(Cc3ccccc3)CC2)c1 | -0.715
8 | COc1ccc(CN2CCN(c3ccccc3F)CC2)c(C)c1C | -0.115
9 | O=C1NC(=O)C(Cc2ccc(F)cc2)C(=O)N1 | -0.985
10 | CCOc1ccc(CN2CCN(c3ccccc3OC)CC2)cc1 | -0.765
11 | COc1ccc(N2C(=O)CC(=O)NC2=O)cc1 | 0.515
12 | CCOc1cc(CN2CCN(c3ccccc3Cl)CC2)ccc1O | 0.125
13 | Cc1ccc(CN2CCN(c3ccc(Cl)cc3)CC2)cc1 | -0.935
14 | CN1CCN(Cc2ccc[nH]2)CC1 | -0.065
15 | COc1cccc(CN2CCN(c3ccccc3OC)CC2)c1 | -0.085
16 | CCN1CCN(Cc2ccc(C)cc2C)CC1 | -0.86
17 | COc1ccccc1N1CCN(Cc2ccc(Cl)cc2)CC1 | 0.8
18 | Cc1ccc(C)c(CN2CCN(C)CC2)c1 | 0.225
19 | COc1ccc(N2CCN(Cc3cccc([N+](=O)[O-])c3)CC2)cc1 | -0.53
20 | COc1ccc(N2CCN(Cc3cc(Br)ccc3OC)CC2)cc1 | -0.195

Rewritten as tab-separated lines: part of the list above.
Row	Compound	T2 sensor activation Q score
19	COc1ccc(N2CCN(Cc3cccc([N+](=O)[O-])c3)CC2)cc1	-0.53
20	COc1ccc(N2CCN(Cc3cc(Br)ccc3OC)CC2)cc1	-0.195

Remaining list, next part.

Row | Compound | T2 sensor activation Q score
21 | COc1cccc(CN2CCN(C)CC2)c1 | -0.415
22 | O=[N+]([O-])c1cccc(CN2CCN(c3ccccc3)CC2)c1 | -0.21
23 | COc1cccc(CN2CCN(c3ccc(F)cc3)CC2)c1OC | 1.19
24 | Fc1cccc(CN2CCN(c3ccccc3Cl)CC2)c1 | 0.12
25 | CCN1CCN(Cc2cccc(Br)c2)CC1 | 0.105
26 | Fc1ccccc1N1CCN(Cc2ccccc2)CC1 | -0.385
27 | CN(C)CCC(=O)c1ccccc1 | -0.85
28 | CCOc1ccccc1N1CCN(Cc2ccc(F)cc2F)CC1 | 0.08
29 | O=[N+]([O-])c1ccc(N2CCN(Cc3ccccc3F)CC2)cc1 | -0.36
30 | COc1ccccc1N1CCN(Cc2cc(C)ccc2C)CC1 | 0.775
31 | CC(C)c1ccc(CN2CCN(C)CC2)cc1 | 0.21
32 | Fc1ccccc1N1CCN(Cc2cccc(Cl)c2)CC1 | -0.16
33 | CN1CCN(Cc2cc3c(cc2[N+](=O)[O-])OCO3)CC1 | 0.695
34 | CN1CCN(Cc2ccc(F)cc2)CC1 | 1.35
35 | CCN1CCN(Cc2cccc([N+](=O)[O-])c2)CC1 | 0.92
36 | Cc1ccc(C(CN)CC(=O)O)cc1 (stereo not given) | 0.52
37 | COc1ccc(CCNC2C3CC4CC(C3)CC2C4)cc1OC (stereo not given) | 0.325
38 | COc1ccc(CN2CCN(c3cccc(C)c3C)CC2)cc1C | 0.04
39 | COc1ccc(CN2CCN(c3ccc(F)cc3)CC2)cc1OC | -0.73
40 | O=c1[nH]c2c(c(=O)n1C1CCCCC1)CCC2 | -0.175
